Protein sequences, listed by entry. Tags and fused reporters are not part of them.
UniProt Q0JBA9, entry or part of it: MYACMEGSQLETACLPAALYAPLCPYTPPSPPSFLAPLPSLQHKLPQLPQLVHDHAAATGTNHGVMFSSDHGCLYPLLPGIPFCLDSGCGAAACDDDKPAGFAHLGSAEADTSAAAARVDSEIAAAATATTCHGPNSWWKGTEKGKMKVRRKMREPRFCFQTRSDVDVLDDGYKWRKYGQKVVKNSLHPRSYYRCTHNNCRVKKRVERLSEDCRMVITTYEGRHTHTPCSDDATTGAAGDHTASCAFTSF

The list shows a part of the results.
Each sequence was assayed against OsWRKY34 (Oryza sativa, UniProt Q0JBA9 1-250) (assay: protein-binding microarray (RPBM); PBS, 2% BSA, 51.3 ng/ul salmon testes DNA, 50 uM zinc acetate, 200 nM TF, 25 C, 1 h; high values mean tight binding). Conditions: protein: recombinant; tags: N-terminal polyhistidine and DsRed monomer fusion (pET32a); label: CyDye5-dUTP incorporated in the synthesized complementary strand; 3' TTTTT single-stranded linker to array surface; dsDNA, one strand shown.
Procedure, shortened: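 Transcription factors were each fused at the N-terminus to a polyhistidine tag plus DsRed and expressed in E. coli BL21-CodonPlus before Ni–NTA purification. Binding to a double-stranded custom Agilent array was carried out with 200 nM protein at 25 °C for 1 h in PBS, 2% BSA, salmon testes DNA and 50 µM zinc acetate. The binding signal is per-feature fluorescence intensity, in arbitrary units, on an Axon 4000B scanner.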
In the case of “CATATATCCAAACCCTAGCCATCCATTCTTCACCTTCTCTCGGAGTCACCTAGTGCAG”, the binding signal is reported as 8240 fluorescence intensity (a.u.).
In the case of “GCGGTATCACTCACACGGTCACACCATGTTTCCACATTGCCGGAGTCACCTAGTGCAG”, the binding signal is reported as 8060 fluorescence intensity (a.u.).
“GGCCCAATTTCCCCTTCCGTTGACGTTGCAAGATTTTTATCGGAGTCACCTAGTGCAG” was tested, and the binding signal was 11000 fluorescence intensity (a.u.).
For “GCACCCCGCCGCCGTGGCCACCTCCGCCCACACCGTCGTCCGGAGTCACCTAGTGCAG”, the binding signal was 8070 fluorescence intensity (a.u.).
“AGCCTGGGTGCCTCTGATTTGTTGTCTTGTAGTGTAACTGCGGAGTCACCTAGTGCAG” was tested, and the binding signal was 8500 fluorescence intensity (a.u.).
In the case of “ATCAACTGATCCTGACTCCGTTACCACCCGGCATATTGTTCGGAGTCACCTAGTGCAG”, the binding signal is reported as 13700 fluorescence intensity (a.u.).
For “TTCTATCTCTCTCAGGCTAACTAATTTCATAAGCACACATCGGAGTCACCTAGTGCAG”, the binding signal was 9150 fluorescence intensity (a.u.).
In the case of “AACCACATCATCTATATCCCGTTAGTATAGGTTGCTCATACGGAGTCACCTAGTGCAG”, the binding signal is reported as 9040 fluorescence intensity (a.u.).
For “CCTAATTATTTTTCCAATTCTTTTAAGTCCTTTGCTTAAACGGAGTCACCTAGTGCAG”, the binding signal was 8520 fluorescence intensity (a.u.).
With “TTAGGGCCACGGATTAGATTTCGATCACTTTTGAGGGTCACGGAGTCACCTAGTGCAG” the binding signal was 8440 fluorescence intensity (a.u.).
“AGAGATTACTTGCGCTTCGATTTGATTTTAGGTCAATGCTCGGAGTCACCTAGTGCAG” was tested, and the binding signal was 8730 fluorescence intensity (a.u.).
For “TTTGTGTGTCTTGTTTATATGTGCACATATCTTGTCTTGTCGGAGTCACCTAGTGCAG”, the binding signal was 8370 fluorescence intensity (a.u.).
“TGGAAGTCTGGAAGGCGCTGTACCTTCGTCTCGCCCGTCACGGAGTCACCTAGTGCAG” was tested, and the binding signal was 8650 fluorescence intensity (a.u.).
For “CACACATAAACTTTTAACTTTTTTATCACATCGTTTTAATCGGAGTCACCTAGTGCAG”, the binding signal was 8490 fluorescence intensity (a.u.).
For “CCCGCTTCTTCCCCGCTGCTTGAATCAGTCGTATCCTCACCGGAGTCACCTAGTGCAG”, the binding signal was 11400 fluorescence intensity (a.u.).
“CCGGAGACGACGATTGCTTTCCAGATGGGCTCAATTCCACCGGAGTCACCTAGTGCAG” was tested, and the binding signal was 8700 fluorescence intensity (a.u.).
In the case of “GGAGAGGATGTCCCAGTTCCCACTATGGCTTGGTTACTGACGGAGTCACCTAGTGCAG”, the binding signal is reported as 9010 fluorescence intensity (a.u.).
With “ACCTCCACTCCCCGCCGAATTATGCCCGGATCTTGCCGCCCGGAGTCACCTAGTGCAG” the binding signal was 10900 fluorescence intensity (a.u.).
In the case of “GTGCTGTAATCTCCGCTCTTTGCTCGCTGACTTGCATTATCGGAGTCACCTAGTGCAG”, the binding signal is reported as 11000 fluorescence intensity (a.u.).
In the case of “ACTTCTGTTCGCTCCATTGCATGTGCCTCCATCACAAGGCCGGAGTCACCTAGTGCAG”, the binding signal is reported as 8430 fluorescence intensity (a.u.).
With “CGATCTCGGTTGTGCTGAGAGCTTAGCGTTGACTTCGATGCGGAGTCACCTAGTGCAG” the binding signal was 14200 fluorescence intensity (a.u.).
For “GATAATTTCTTCATCTTTTTACTTATCTCCTCGCTAATTCCGGAGTCACCTAGTGCAG”, the binding signal was 10700 fluorescence intensity (a.u.).
With “GTCGTCTCAGTAGCCGAGTAAAGCAACCGTACGCTTCGACCGGAGTCACCTAGTGCAG” the binding signal was 8040 fluorescence intensity (a.u.).
For “GGGTGGGGAGGTGGTGGTCGTCGGGCAGGTGGGGAGGATGCGGAGTCACCTAGTGCAG”, the binding signal was 23900 fluorescence intensity (a.u.).
In the case of “GCGAATCCCTCTTGTTTATCCAACTTTTGTCAACGTTATGCGGAGTCACCTAGTGCAG”, the binding signal is reported as 8410 fluorescence intensity (a.u.).
“ACCTGACACCCAGCACAAGCTGTACCACATCCTTCTTCCACGGAGTCACCTAGTGCAG” was tested, and the binding signal was 9460 fluorescence intensity (a.u.).
“CCTTATAACTTCCAACTGACAATTGTTTAACTCATTATGGCGGAGTCACCTAGTGCAG” was tested, and the binding signal was 8400 fluorescence intensity (a.u.).
In the case of “CGTGAGCCATCCCCGAGCCGAGCTCTCTCTCTCTCGCTCTCGGAGTCACCTAGTGCAG”, the binding signal is reported as 8720 fluorescence intensity (a.u.).
With “ATCGGATTCTGTTGTTACATTTATTGATTGATTGAATCAGCGGAGTCACCTAGTGCAG” the binding signal was 8270 fluorescence intensity (a.u.).
“TCAACTCCATCTGGTCATCAATCACTCTACCTTCATCTTCCGGAGTCACCTAGTGCAG” was tested, and the binding signal was 9080 fluorescence intensity (a.u.).
For “TGCGCGACACCATTGTTCTCCGAGATTCTCAAGGTCCCTTCGGAGTCACCTAGTGCAG”, the binding signal was 11000 fluorescence intensity (a.u.).
With “AGAGCGGATATGACTTTTCAGCTGGAACATTTTACTTCTTCGGAGTCACCTAGTGCAG” the binding signal was 8120 fluorescence intensity (a.u.).
For “TTCCGGTTGTCACATAATGCTTCCGATCAATTTTTTTCGTCGGAGTCACCTAGTGCAG”, the binding signal was 8820 fluorescence intensity (a.u.).
For “GCTCATGCAGCCCTCGCGCCGGCGCCTGTGACCCTCGCGCCGGAGTCACCTAGTGCAG”, the binding signal was 9460 fluorescence intensity (a.u.).
For “ACAGTTTGACTTTGACCAAAGTCAAAACGTCTTATAATCTCGGAGTCACCTAGTGCAG”, the binding signal was 15900 fluorescence intensity (a.u.).
For “TGTTATTGTCCTGTATCAGTCCCGTGCTGTTTTTCTCTTTCGGAGTCACCTAGTGCAG”, the binding signal was 13000 fluorescence intensity (a.u.).
For “TTCCCTCGTTTTGATCATTCGATCATTCCATGGTTTGGTTCGGAGTCACCTAGTGCAG”, the binding signal was 12200 fluorescence intensity (a.u.).
In the case of “ACAGAATAGTCTCGGCCATTCGTTATTACGCTGCTTCCTTCGGAGTCACCTAGTGCAG”, the binding signal is reported as 9450 fluorescence intensity (a.u.).
For “TATGTTGTTCATATCAGTTCACCTTCTTTCCTTGAATTATCGGAGTCACCTAGTGCAG”, the binding signal was 8090 fluorescence intensity (a.u.).
In the case of “GAGGGACATTGTTTGCACCGGTTTCGATAGTTGGAGGATTCGGAGTCACCTAGTGCAG”, the binding signal is reported as 8240 fluorescence intensity (a.u.).
For “AATCGTCCGCTTCCAACCGCCTGCGCATGTGTGCAACCACCGGAGTCACCTAGTGCAG”, the binding signal was 9080 fluorescence intensity (a.u.).
“CACTATCTTTATTTGTTTCTGTCTAATCTGTAAGAATACTCGGAGTCACCTAGTGCAG” was tested, and the binding signal was 8050 fluorescence intensity (a.u.).
With “CTCCCTGCTTTCAGTGCTAGCTAGCTTCCTCTGACCTCTACGGAGTCACCTAGTGCAG” the binding signal was 8880 fluorescence intensity (a.u.).
“ACATGTTCTTTGTTTTATATTTTTCGTGTGACTTACATGTCGGAGTCACCTAGTGCAG” was tested, and the binding signal was 10100 fluorescence intensity (a.u.).
“CCTATATATCTCGCGGCCTCGCATCCCACCGCGACAAACCCGGAGTCACCTAGTGCAG” was tested, and the binding signal was 8150 fluorescence intensity (a.u.).
With “CACCGCCACACTTCCTCCCTGCCATCCTCCATTTCTTCCTCGGAGTCACCTAGTGCAG” the binding signal was 8100 fluorescence intensity (a.u.).
In the case of “CCCTGATCTTCTACACCGTGGCTTTATTCAGCCCTCGTAACGGAGTCACCTAGTGCAG”, the binding signal is reported as 11300 fluorescence intensity (a.u.).
“AACGGTCTTCGGTCAACGACCTAGCAATTGTTTTGATTTGCGGAGTCACCTAGTGCAG” was tested, and the binding signal was 8730 fluorescence intensity (a.u.).
For “GCAACCGCCGCCGCAATGTCCGTCACCGCCGGGGTCGCCCCGGAGTCACCTAGTGCAG”, the binding signal was 10500 fluorescence intensity (a.u.).
“ATTTGATGCCGTTGACTTTTTTAAATATGTTTAACCGTTCCGGAGTCACCTAGTGCAG” was tested, and the binding signal was 33000 fluorescence intensity (a.u.).
For “AGGGGAGGGGCGCTGTATTAATTCGAACGTAACCACCCTCCGGAGTCACCTAGTGCAG”, the binding signal was 10000 fluorescence intensity (a.u.).
With “GCGGTGGGGAGGAGGTCGTCGACGCGAGGAGGTCCGACAGCGGAGTCACCTAGTGCAG” the binding signal was 8040 fluorescence intensity (a.u.).
For “CAAACTTTCAACTTTCCATCGCATCAAACCTTTCATACACCGGAGTCACCTAGTGCAG”, the binding signal was 8310 fluorescence intensity (a.u.).
“ATCCAACTACTACTTGGCCGCCTCACACGCTCCCACTCTTCGGAGTCACCTAGTGCAG” was tested, and the binding signal was 10100 fluorescence intensity (a.u.).

Reference: publication PMC7819943, “Rice protein-binding microarrays: a tool to detect cis-acting elements near promoter regions in rice”
